Experimental data reported in paper PMC4479986, “An Alternative Phosphorylation Switch in Integrin β2 (CD18) Tail for Dok1 Binding” (Scientific Reports, 2015).
No constants are given. Whether binding was seen depends on the method and setting. Binding seen in cells or lysates may run through a third protein. Some entries that bind do so weakly or less than the wild type. Tags and fused reporters may be left off the sequences shown.

Chains of the proteins cited; added tags and fusions are not shown. Lines headed by an entry give the natural chain unless they say otherwise; changes in a name come on top. A line that says so, or that is headed by a name, gives the form on record, which may keep a tag or linker. Residues count along the entry.
Integrin β2-YFP wild-type (YFP fused to the C-terminal of the β2 cytoplasmic tail) (P05107, residues 23-769): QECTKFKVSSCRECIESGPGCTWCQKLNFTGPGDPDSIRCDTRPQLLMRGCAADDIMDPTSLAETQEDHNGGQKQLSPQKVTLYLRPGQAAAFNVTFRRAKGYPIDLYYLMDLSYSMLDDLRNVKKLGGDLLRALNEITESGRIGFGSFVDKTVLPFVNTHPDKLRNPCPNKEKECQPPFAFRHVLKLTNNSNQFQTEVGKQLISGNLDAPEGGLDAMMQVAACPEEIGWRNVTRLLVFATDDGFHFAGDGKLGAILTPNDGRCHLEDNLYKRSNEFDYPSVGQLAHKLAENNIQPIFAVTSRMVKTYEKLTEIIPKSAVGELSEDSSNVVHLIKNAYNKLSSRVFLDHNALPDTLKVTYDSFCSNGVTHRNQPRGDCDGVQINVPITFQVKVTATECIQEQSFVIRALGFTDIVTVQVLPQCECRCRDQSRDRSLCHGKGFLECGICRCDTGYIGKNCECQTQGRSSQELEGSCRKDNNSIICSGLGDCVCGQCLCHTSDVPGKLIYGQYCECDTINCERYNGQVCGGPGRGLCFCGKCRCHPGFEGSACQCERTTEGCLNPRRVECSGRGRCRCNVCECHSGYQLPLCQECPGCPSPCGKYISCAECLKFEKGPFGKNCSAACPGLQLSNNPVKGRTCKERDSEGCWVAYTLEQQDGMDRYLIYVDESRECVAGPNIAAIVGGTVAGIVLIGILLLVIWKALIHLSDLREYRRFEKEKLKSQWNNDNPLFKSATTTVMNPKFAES
Integrin β2-YFP S745E/S756E (P05107, form named): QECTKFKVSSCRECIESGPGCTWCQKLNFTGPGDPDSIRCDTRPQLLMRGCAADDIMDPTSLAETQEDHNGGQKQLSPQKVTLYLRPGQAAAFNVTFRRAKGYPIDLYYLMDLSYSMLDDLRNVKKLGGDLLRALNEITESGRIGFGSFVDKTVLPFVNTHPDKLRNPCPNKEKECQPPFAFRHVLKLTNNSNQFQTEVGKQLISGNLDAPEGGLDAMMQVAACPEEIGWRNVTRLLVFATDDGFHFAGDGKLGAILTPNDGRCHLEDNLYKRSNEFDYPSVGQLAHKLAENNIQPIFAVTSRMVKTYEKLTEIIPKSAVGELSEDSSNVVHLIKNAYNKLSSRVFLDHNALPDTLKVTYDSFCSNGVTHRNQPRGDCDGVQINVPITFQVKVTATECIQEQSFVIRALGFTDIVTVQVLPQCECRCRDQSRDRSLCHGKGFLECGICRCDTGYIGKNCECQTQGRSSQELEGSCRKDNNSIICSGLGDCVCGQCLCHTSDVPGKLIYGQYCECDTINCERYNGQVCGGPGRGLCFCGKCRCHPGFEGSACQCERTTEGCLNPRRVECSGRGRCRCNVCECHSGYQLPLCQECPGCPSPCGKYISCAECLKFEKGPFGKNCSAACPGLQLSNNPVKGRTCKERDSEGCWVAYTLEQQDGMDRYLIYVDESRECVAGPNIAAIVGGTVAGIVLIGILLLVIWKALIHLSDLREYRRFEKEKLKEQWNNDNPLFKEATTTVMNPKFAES

Assays:
[1] = target: Integrin β2-YFP wild-type (YFP fused to the C-terminal of the β2 cytoplasmic tail) (human) (UniProt P05107); assay: FRET or BRET; YFP-photobleach FRET in K562 cells transfected with integrin αL, β2-YFP (WT or mutant) and Dok1-CFP; also stable Dok1-CFP K562 line transfected with αL, β2-YFP and CCR5, untreated
[2] = target: Integrin β2-YFP S745E/S756E (human) (UniProt P05107); assay: as above

B1: Dok1-CFP (CFP fused to the C-terminus of Dok1) (protein, UniProt Q99704 1-481)
chain: MDGAVMEGPLFLQSQRFGTKRWRKTWAVLYPASPHGVARLEFFDHKGSSSGGGRGSSRRLDCKVIRLAECVSVAPVTVETPPEPGATAFRLDTAQRSHLLAADAPSSAAWVQTLCRNAFPKGSWTLAPTDNPPKLSALEMLENSLYSPTWEGSQFWVTVQRTEAAERCGLHGSYVLRVEAERLTLLTVGAQSQILEPLLSWPYTLLRRYGRDKVMFSFEAGRRCPSGPGTFTFQTAQGNDIFQAVETAIHRQKAQGKAGQGHDVLRADSHEGEVAEGKLPSPPGPQELLDSPPALYAEPLDSLRIAPCPSQDSLYSDPLDSTSAQAGEGVQRKKPLYWDLYEHAQQQLLKAKLTDPKEDPIYDEPEGLAPVPPQGLYDLPREPKDAWWCQARVKEEGYELPYNPATDDYAVPPPRSTKPLLAPKPQGPAFPEPGTATGSGIKSHNSALYSQVQKSGASGSWDCGLSRVGTDKTGVKSEGST
binding [1]: binds
binding [2]: binds weakly
